In doi:10.1101/2025.10.07.680626:

Tests used:
Test in all cases: cryo-EM structure
[1] = target: T1, ribosomal protein uS7 of A. baumannii (Acinetobacter baumannii ATCC BAA1605 (endogenous in the strain)) (UniProt A3M305)
T1 sequence: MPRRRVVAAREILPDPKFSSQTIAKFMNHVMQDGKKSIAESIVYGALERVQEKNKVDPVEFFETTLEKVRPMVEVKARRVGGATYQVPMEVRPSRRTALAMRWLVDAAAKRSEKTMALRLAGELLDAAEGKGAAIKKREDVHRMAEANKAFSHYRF

[2] = target: T2, ribosomal protein uS7 of P. aeruginosa (Pseudomonas aeruginosa PA14 (endogenous in the strain)) (UniProt B7V640)
T2 sequence: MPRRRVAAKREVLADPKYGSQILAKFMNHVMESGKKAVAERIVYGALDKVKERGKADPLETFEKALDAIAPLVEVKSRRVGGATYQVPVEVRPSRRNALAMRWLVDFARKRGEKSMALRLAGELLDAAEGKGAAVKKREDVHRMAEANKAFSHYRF

[3] = target: T3, ribosomal protein uS9 of P. aeruginosa (Pseudomonas aeruginosa PA14 (endogenous in the strain)) (UniProt B7UZL0)
T3 sequence: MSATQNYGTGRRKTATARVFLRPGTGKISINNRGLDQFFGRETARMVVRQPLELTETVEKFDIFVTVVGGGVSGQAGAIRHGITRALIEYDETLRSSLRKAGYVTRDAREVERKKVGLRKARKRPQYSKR

Substance	binding [1]	binding [2]	binding [3]
hibernation factor YfiA of A. baumannii	binds		
hibernation-promoting factor HPF (short form) of P. aeruginosa (from UniProt A0A071L218)		binds	binds

Results are given in words; binding and its absence hold for the method and conditions named. A result given as binding can be weak or reduced; the word gives no strength.
